{
  "sequences": {"note": "Protein sequences, listed by entry. Tags and fused reporters are not part of them.", "UniProt Q0JBA9, entry or part of it": "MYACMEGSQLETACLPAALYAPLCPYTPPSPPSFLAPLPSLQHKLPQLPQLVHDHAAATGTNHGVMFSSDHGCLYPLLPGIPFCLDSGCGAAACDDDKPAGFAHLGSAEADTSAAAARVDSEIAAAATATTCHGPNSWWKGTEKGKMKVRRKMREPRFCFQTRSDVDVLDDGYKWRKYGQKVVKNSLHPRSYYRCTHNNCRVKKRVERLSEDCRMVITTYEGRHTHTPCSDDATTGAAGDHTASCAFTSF"},
  "source": "paper PMC7819943",
  "about": "“Rice protein-binding microarrays: a tool to detect cis-acting elements near promoter regions in rice”",
  "note": "The list shows a part of the results.",
  "data": [
    {"target": "OsWRKY34 (Oryza sativa, UniProt Q0JBA9 1-250)", "experiment": "protein-binding microarray (RPBM); PBS, 2% BSA, 51.3 ng/ul salmon testes DNA, 50 uM zinc acetate, 200 nM TF, 25 C, 1 h; high values mean tight binding", "details": "protein: recombinant; tags: N-terminal polyhistidine and DsRed monomer fusion (pET32a); label: CyDye5-dUTP incorporated in the synthesized complementary strand; 3' TTTTT single-stranded linker to array surface; dsDNA, one strand shown", "in_short": "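Transcription factors were made in E. coli BL21-CodonPlus as N-terminal fusions to a polyhistidine tag and DsRed, then purified on Ni–NTA. After primer extension with Cy5-dUTP and blocking with 2% BSA, a custom Agilent array was exposed for 1 h at 25 °C to 200 nM protein in PBS, 2% BSA, salmon testes DNA and 50 µM zinc acetate. Washed arrays were scanned on an Axon 4000B, and the binding signal is per-feature fluorescence intensity in arbitrary units.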", "values": [
      {"sequence": "TAAGTTGACTGTTTTTATATGTTTGTATCTTCAGAAGTTCCGGAGTCACCTAGTGCAG", "binding signal": "8260 fluorescence intensity (a.u.)"},
      {"sequence": "TTCATTCCTCCATCCTACTAGATTTTAGCGGGTCGTTTTTCGGAGTCACCTAGTGCAG", "binding signal": "9540 fluorescence intensity (a.u.)"},
      {"sequence": "AGGAAATCGGATGAACTTTTTTTTACATGTTTTTTAGATTCGGAGTCACCTAGTGCAG", "binding signal": "8100 fluorescence intensity (a.u.)"},
      {"sequence": "GGTTTTCTCTCTACTTATGTTTAGCAATTCCGTAAAAAATCGGAGTCACCTAGTGCAG", "binding signal": "9280 fluorescence intensity (a.u.)"},
      {"sequence": "ACGGCATTTTTCGCCCCTTTTGTCACTGAAACACTTCACCCGGAGTCACCTAGTGCAG", "binding signal": "8860 fluorescence intensity (a.u.)"},
      {"sequence": "GATCGTTGCTGGTTGTAAAATTTAGTTTTTTTTCTAATTTCGGAGTCACCTAGTGCAG", "binding signal": "14600 fluorescence intensity (a.u.)"},
      {"sequence": "ACGGAATGTGGAGAGGTGGGTGGGGCCTCGTGGAGATTCCCGGAGTCACCTAGTGCAG", "binding signal": "9560 fluorescence intensity (a.u.)"},
      {"sequence": "GCAAAAAAAACCTGCTTGCCCTGTCCCGCTTGTATCCCCACGGAGTCACCTAGTGCAG", "binding signal": "9090 fluorescence intensity (a.u.)"},
      {"sequence": "GTTGACTTTTTAGTACGTGTTTGACCATTCGTCTTATTCACGGAGTCACCTAGTGCAG", "binding signal": "10100 ± 646 fluorescence intensity (a.u.)"},
      {"sequence": "GAACCATCTGTGTTTGTTCTTCTTTTGCATGAGACGCTCTCGGAGTCACCTAGTGCAG", "binding signal": "9280 fluorescence intensity (a.u.)"},
      {"sequence": "ACACCTCTGACCGCCCTTGCAAAACATACCCGGTTGCTAACGGAGTCACCTAGTGCAG", "binding signal": "10000 fluorescence intensity (a.u.)"},
      {"sequence": "TTGGGTTTCCGTGCCCAACTTTGACTGTTTGTCTTATATGCGGAGTCACCTAGTGCAG", "binding signal": "8350 fluorescence intensity (a.u.)"},
      {"sequence": "TGGTTCTCACACTGCTCAAAAGCTGGCCTCTTTATTCAGTCGGAGTCACCTAGTGCAG", "binding signal": "8180 fluorescence intensity (a.u.)"},
      {"sequence": "CCTGTCTCCACTCACCGGTCACCACTCACCACTGGACCACCGGAGTCACCTAGTGCAG", "binding signal": "10400 fluorescence intensity (a.u.)"},
      {"sequence": "GTGCAGTTGTCTTCTTCTGTTCTTTGGTCATATAGTAGTTCGGAGTCACCTAGTGCAG", "binding signal": "14900 fluorescence intensity (a.u.)"},
      {"sequence": "TTTCTTCATTTCATGATTGTATATTCTGGTGTTTTTGTGGCGGAGTCACCTAGTGCAG", "binding signal": "9250 fluorescence intensity (a.u.)"},
      {"sequence": "GCACCACCAGATCTCCCTTGGACCGGTTCCATCGTCTCCGCGGAGTCACCTAGTGCAG", "binding signal": "10200 fluorescence intensity (a.u.)"},
      {"sequence": "ACCTTTACCATATACAGTGTCTTCAATTTTTTTTTTTGGTCGGAGTCACCTAGTGCAG", "binding signal": "9610 fluorescence intensity (a.u.)"},
      {"sequence": "TTTCATGGAGCCAAGTTAGCGCTTTTTTTTCCTTTTCTTCCGGAGTCACCTAGTGCAG", "binding signal": "8730 fluorescence intensity (a.u.)"},
      {"sequence": "GGAAGGGGTGGAACAGTAGATGTTTAGCCTACAGGAAAGTCGGAGTCACCTAGTGCAG", "binding signal": "8560 fluorescence intensity (a.u.)"},
      {"sequence": "GAGATCATTTTCCCTCGCTTCGGAACACCGAGAATGGTGACGGAGTCACCTAGTGCAG", "binding signal": "8490 fluorescence intensity (a.u.)"},
      {"sequence": "TTTGAATCCGTCAACTATTTTCCTTTGATCGTGTCGTGCCCGGAGTCACCTAGTGCAG", "binding signal": "12000 fluorescence intensity (a.u.)"},
      {"sequence": "GACTTTCTAGCATTGCCCATATTCATATAGATGTTAATGACGGAGTCACCTAGTGCAG", "binding signal": "8260 fluorescence intensity (a.u.)"},
      {"sequence": "AAACCTCTCATGTTCATCTCAATTTTCTCAGTTGTGCATTCGGAGTCACCTAGTGCAG", "binding signal": "10200 fluorescence intensity (a.u.)"},
      {"sequence": "GTTTGTCTTTCTGAATCTGCTTGATTTCCTAGTTGCATGTCGGAGTCACCTAGTGCAG", "binding signal": "11400 fluorescence intensity (a.u.)"},
      {"sequence": "CCATTTCCTTGCAAGTCGTACATATACACAGTTACACACACGGAGTCACCTAGTGCAG", "binding signal": "8180 fluorescence intensity (a.u.)"},
      {"sequence": "TGCCACCTTCTTCATCTCCTACCTCGTCCTACTCCTATCACGGAGTCACCTAGTGCAG", "binding signal": "8640 fluorescence intensity (a.u.)"},
      {"sequence": "TTTTATCACCATGTATTGCCCTCTTTCTATCTTGTAAGCTCGGAGTCACCTAGTGCAG", "binding signal": "10400 fluorescence intensity (a.u.)"},
      {"sequence": "TTGAAAAGTCAACGGCGTCAAATATTTAGAGATGGAGGCACGGAGTCACCTAGTGCAG", "binding signal": "8910 fluorescence intensity (a.u.)"},
      {"sequence": "TATCATCCCACTGTACCACTGGCTGCTTATTAATCGGCAACGGAGTCACCTAGTGCAG", "binding signal": "9100 fluorescence intensity (a.u.)"},
      {"sequence": "GTGTATTAAGAAAACACATACTCTATTCGTTTTTCATATTCGGAGTCACCTAGTGCAG", "binding signal": "8100 fluorescence intensity (a.u.)"},
      {"sequence": "CTTTTTTAAATCCTCCACTCTCATGTTATCTAATCCTATTCGGAGTCACCTAGTGCAG", "binding signal": "9390 fluorescence intensity (a.u.)"},
      {"sequence": "GATTTGGATTTTGCAGCTCAGGGTTCTATTCAATTTGGGGCGGAGTCACCTAGTGCAG", "binding signal": "9000 fluorescence intensity (a.u.)"},
      {"sequence": "CACCCTGCCATTGCTGTGTATTTAAGTGGCATTGTCTGTCCGGAGTCACCTAGTGCAG", "binding signal": "8530 fluorescence intensity (a.u.)"},
      {"sequence": "CCACTGATACATTGTTGTTCCATGCCAGCATGCCTTTTATCGGAGTCACCTAGTGCAG", "binding signal": "8220 fluorescence intensity (a.u.)"},
      {"sequence": "ATTCGATTCCTCACTTGCCTTGCCGCCCTCATTTTCCTCACGGAGTCACCTAGTGCAG", "binding signal": "8500 fluorescence intensity (a.u.)"},
      {"sequence": "CGGCGAGTTCGATCGATCGGTGTATACGCGTATCGTGTTGCGGAGTCACCTAGTGCAG", "binding signal": "8300 fluorescence intensity (a.u.)"},
      {"sequence": "TTCTTTTTTTTTTCTTTTGCTATTCCAGGCGTTTGCGGGGCGGAGTCACCTAGTGCAG", "binding signal": "11300 fluorescence intensity (a.u.)"},
      {"sequence": "AGAAAAGAATCTACAGTACCCACATGGCATACTCTCTTTTCGGAGTCACCTAGTGCAG", "binding signal": "9950 fluorescence intensity (a.u.)"},
      {"sequence": "AACAGGAGGAGGAGGAGGAGGAGGAGGAGGAGAGGTGGGGCGGAGTCACCTAGTGCAG", "binding signal": "9280 fluorescence intensity (a.u.)"},
      {"sequence": "CCTCTTTGTGTTCTGGCAGAAGTCTATGTCCCGCGATGAACGGAGTCACCTAGTGCAG", "binding signal": "11700 fluorescence intensity (a.u.)"},
      {"sequence": "TATGGCCCCGCGCGTCGCCCGCTTCTGCCGACCGCCGCTCCGGAGTCACCTAGTGCAG", "binding signal": "8170 fluorescence intensity (a.u.)"}
    ]}
  ]
}
